{"source": "PubChem BioAssay AID504444", "about": "(National Center for Advancing Translational Sciences (NCATS), 2011)", "note": "Among all 360,000 compounds or so, about 7,500 (2.1%) were called active. This list was built around the results that the source calls inconclusive (neither active nor inactive); the mix of calls is not that of the screen. The call rests on the fitted dose curve; in most records, active means well fitted inhibition curve with a large enough effect; inconclusive means small, poorly fitted or top-dose-only effect, or effect the other way; inactive means flat fitted curve, though single readings scatter. Potencies of inconclusive entries are doubtful fits and often do not repeat. On the % scale 0 is the no-effect control and ±100 the full control effect; potency means the concentration at half of the fitted maximal effect.", "data": [{"assay": "Nrf2 qHTS screen for inhibitors; further: nearly all actives have a fitted effect of over 60% in size", "details": "A549 ARE-Fluc reporter, luciferase luminescence, 18-24 h; activity change, negative = inhibition: at 46 µM (top of the series)", "in_short": "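Nrf2 activity is the BugLite luminescence, read 15 min after reagent at room temperature, following CellTiter-Fluor cytotoxicity readout (30 min, 37C). Compound titrations were applied for 18-24 h to 5000 A549 ARE_Fluc cells/well in 5% FBS OPTI-MEM.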", "values": [{"smiles": "CC(C)c1ccc(NC(=O)COC(=O)COc2ccccc2)cc1", "Potency": "inconclusive: 23.1 µM [activator, partial curve, poor fit]"}, {"smiles": "Cc1oc(-c2ccc(Cl)cc2)nc1CN1CCCC(C(=O)NCc2ccccc2)C1", "note": "(configuration not stated)", "Potency": "inconclusive: 25.9 µM [falling, single point]"}, {"smiles": "CCCOc1ccc(C(=O)N/N=C/c2ccc(-c3ccc(S(=O)(=O)Nc4ncccn4)cc3)o2)cc1", "Potency": "inconclusive: 11.6 µM [falling, partial curve, poor fit]"}, {"smiles": "O=C(Nc1ccccc1)c1ccc(CSc2ncccn2)cc1", "Potency": "inconclusive: 1.46 µM [activator, full curve]"}, {"smiles": "COc1ccc(NC(=O)CCC(=O)c2cccs2)cc1Cl", "activity change, negative = inhibition": "inactive: 23.9%"}, {"smiles": "O=c1[nH]cnc2c1c(-c1ccccc1)cn2-c1ccc(F)cc1", "Potency": "active: 25.9 µM"}, {"smiles": "CCOc1ccc(N(CC(=O)NCc2ccc(F)cc2)C(=O)c2ccco2)cc1", "activity change, negative = inhibition": "inactive: 0.0736%"}, {"smiles": "Cc1cccc(NS(=O)(=O)c2ccc(C)c(C(=O)NC3CCN(Cc4ccccc4)CC3)c2)c1", "Potency": "active: 8.2 µM"}, {"smiles": "Cc1ccc(C(NC(=O)c2ccccc2)C(Cl)(Cl)Cl)cc1", "note": "(configuration not stated)", "Potency": "inconclusive: 23.1 µM [falling, single point]"}, {"smiles": "COc1ccc(NC(=O)Cc2coc3ccc4ccccc4c23)cc1S(=O)(=O)N1CCOCC1", "Potency": "inconclusive: 20.6 µM [falling, single point]"}, {"smiles": "COc1ccc(CNC(=O)c2c(C)nc3ccccn23)cc1", "Potency": "inconclusive: 0.0291 µM [falling, full curve, poor fit]"}, {"smiles": "CCCC(=O)NC(=S)Nc1ccc(S(=O)(=O)Nc2ccc(OCC)cc2)cc1", "Potency": "active: 7.31 µM"}, {"smiles": "O=C(NCC1CCCO1)c1ccc(COc2ccccc2Br)cc1", "note": "(configuration not stated)", "Potency": "inconclusive: 5.8 µM [falling, single point]"}, {"smiles": "COc1cccc(C(=O)Nc2nc(-c3ccc(Br)cc3)ns2)c1", "Potency": "inconclusive: 29.1 µM [falling, single point]"}, {"smiles": "Cc1ccccc1OCCn1c(CCNC(=O)C2CCCCC2)nc2ccccc21", "Potency": "inconclusive: 23.1 µM [falling, partial curve, poor fit]"}, {"smiles": "Cc1nc2ccc(S(=O)(=O)NCC(=O)Nc3ccc(F)cc3F)cc2s1", "Potency": "inconclusive: 16.4 µM [activator, partial curve, poor fit]"}, {"smiles": "COc1ccc(NC(=S)NCCC(c2ccccc2)c2ccccc2)c(OC)c1", "Potency": "inconclusive: 35.5 µM [falling, single point]"}, {"smiles": "CCCCSc1ccc(NC(=O)c2cccnc2)cc1", "Potency": "inconclusive: 10.3 µM [falling, partial curve, poor fit]"}, {"smiles": "O=c1c2ccccc2oc2c1oc1ccccc12", "Potency": "inconclusive: 7.31 µM [activator, partial curve]"}, {"smiles": "Cc1cc(/C=N/NC(=O)C(O)(c2ccccc2)c2ccccc2)c(C)n1-c1cccc(C(=O)O)c1", "Potency": "inconclusive: 29.1 µM [activator, single point]"}, {"smiles": "CCc1ccc(OCCn2c(C3CC(=O)N(Cc4ccc(F)cc4)C3)nc3ccccc32)cc1", "note": "(configuration not stated)", "Potency": "active: 14.6 µM"}, {"smiles": "CCc1ccccc1-n1nnc(-c2nsc(NC(=O)c3ccc(C)c(C)c3)n2)c1C", "Potency": "active: 8.2 µM"}, {"smiles": "O=C(NCCc1c[nH]c2ccccc12)/C(=C\\c1cccnc1)NC(=O)c1ccccc1Br", "Potency": "inconclusive: 14.6 µM [falling, partial curve]"}, {"smiles": "O=C(CCCCC(=O)N1CCOCCOCCOCC1)OCc1ccccc1", "Potency": "inconclusive: 6.51 µM [falling, single point]"}, {"smiles": "C[n+]1ccccc1/C=C/c1ccc(F)c(F)c1", "activity change, negative = inhibition": "inactive: -14.4%"}, {"smiles": "NC(=O)C1(N2CCCCC2)CCN(c2nc(-c3ccc(Br)cc3)cs2)CC1", "Potency": "inconclusive: 29.1 µM [falling, single point]"}, {"smiles": "O=C(c1ccc(Cl)s1)N1CCN(c2ccccc2)CC1", "Potency": "inconclusive: 29.1 µM [activator, single point]"}, {"smiles": "O=C(NCc1cccs1)C(=O)NCC(c1ccco1)N1CCN(c2ccc(F)cc2)CC1", "note": "(configuration not stated)", "Potency": "active: 14.6 µM"}, {"smiles": "Cc1ccc(NC(=O)CCC(=O)N/N=C/c2cc([N+](=O)[O-])ccc2O)cc1", "Potency": "inconclusive: 16.4 µM [falling, single point]"}, {"smiles": "CCn1c(CSCc2c(Cl)cccc2Cl)n[nH]c1=S", "Potency": "inconclusive: 10.3 µM [falling, partial curve, poor fit]"}, {"smiles": "COc1ccc(CCNc2oc(COc3ccccc3F)nc2C#N)cc1", "activity change, negative = inhibition": "inactive: 6.24%"}, {"smiles": "Oc1ccc[n+](/C=C\\c2ccccc2)c1", "Potency": "inconclusive: 25.9 µM [activator, partial curve, poor fit]"}, {"smiles": "Cn1nnc(-c2ccc(OCc3ccccc3F)cc2)n1", "Potency": "inconclusive: 0.103 µM [activator, full curve]"}, {"smiles": "N#CC(=C1Nc2ccccc2N1)S(=O)(=O)c1ccccc1", "Potency": "inconclusive: 8.2 µM [falling, partial curve, poor fit]"}, {"smiles": "CC(=O)Nc1ccc(NC(=O)c2ccnn2C)cc1", "Potency": "inconclusive: 7.31 µM [activator, partial curve]"}, {"smiles": "Nc1nn(-c2ccccc2)nc1C(=O)OCc1ccccc1", "Potency": "inconclusive: 25.9 µM [activator, partial curve, poor fit]"}, {"smiles": "Cc1ccccc1CNc1ncnc2cc(Cl)ccc12", "Potency": "inconclusive: 29.1 µM [falling, single point]"}, {"smiles": "CC1CCCN(CCCNC(=O)Cn2ncc3c([nH]c4ccccc43)c2=O)C1", "note": "(configuration not stated)", "Potency": "inconclusive: 11.6 µM [activator, partial curve, poor fit]"}, {"smiles": "COC(=O)c1ccn(Cc2ccccc2Cl)n1", "Potency": "inconclusive: 25.9 µM [activator, partial curve]"}, {"smiles": "COc1ccc(CNc2ccc(Br)cc2)cc1", "Potency": "inconclusive: 29.1 µM [activator, single point]"}, {"smiles": "CCOC(=O)C1(CCc2ccccc2)CCN(C(=O)[C@@H]2C[C@@H](C)NC(=S)N2)CC1", "Potency": "inconclusive: 29.1 µM [activator, single point]"}, {"smiles": "C/C(=N/Nc1nc(-c2ccccc2)cc(-c2ccc(F)cc2)n1)c1cccc(N)c1", "Potency": "inconclusive: 29.1 µM [falling, single point]"}]}]}
